Assay [1] has as its target HAK5 (high-affinity K+ uptake protein), split-ubiquitin fusion (Arabidopsis). Kind of assay: two-hybrid.
In assay [2] the target is HAK5, BiFC fusion expressed in Nicotiana benthamiana (Arabidopsis). The experiment in a line: split reporter.
In assay [3] the target is HAK5, split-nanoluciferase fusion in yeast (Arabidopsis). The experiment in a line: split reporter.
In assay [4] the target is YC:HAK5, BiFC fusion expressed in Xenopus oocytes (Arabidopsis). Kind of assay: split reporter.

Substitutions are numbered along the chain they refer to. In names and notes the source's numbering stands. These are yes or no findings as the source states them, for the method shown. A result given as binding can be weak or reduced; the word gives no strength. Tags and fused reporters may be left off the sequences shown. For some assays here: Binding seen in cells or lysates may run through a third protein.

B1: NPF6.2/NRT1.4 (nitrate transporter), split-ubiquitin fusion (protein, UniProt Q9SZY4 1-577)
chain: MESKGSWTVADAVDYKGRPADKSKTGGWITAALILGIEVVERLSTMGIAVNLVTYLMETMHLPSSTSANIVTDFMGTSFLLCLLGGFLADSFLGRFKTIGIFSTIQALGTGALAVATKLPELRPPTCHHGEACIPATAFQMTILYVSLYLIALGTGGLKSSISGFGSDQFDDKDPKEKAHMAFFFNRFFFFISMGTLLAVTVLVYMQDEVGRSWAYGICTVSMAIAIVIFLCGTKRYRYKKSQGSPVVQIFQVIAAAFRKRKMELPQSIVYLYEDNPEGIRIEHTDQFHLLDKAAIVAEGDFEQTLDGVAIPNPWKLSSVTKVEEVKMMVRLLPIWATTIIFWTTYAQMITFSVEQASTMRRNIGSFKIPAGSLTVFFVAAILITLAVYDRAIMPFWKKWKGKPGFSSLQRIAIGLVLSTAGMAAAALVEQKRLSVAKSSSQKTLPISVFLLVPQFFLVGAGEAFIYTGQLDFFITQSPKGMKTMSTGLFLTTLSLGFFVSSFLVSIVKRVTSTSTDVGWLADNINHGRLDYFYWLLVILSGINFVVYIICALWFKPTKGKDSVEKENGKGFSVEDC
In the case of B1, in assay [1], the binding entry is recorded as “binds”.

B2: NPF6.2, BiFC fusion expressed in Nicotiana benthamiana (protein, UniProt Q9SZY4 1-577)
chain: B1 chain
With B2, the binding result in assay [2] is recorded as “binds”.

B3: NPF6.2^V210M, split-nanoluciferase fusion in yeast (protein, UniProt Q9SZY4 1-577)
chain: B1 chain with V210M
Take B3: the binding entry in assay [3] is “binds”.

B4: YN:NPF6.2^V210M, BiFC fusion expressed in Xenopus oocytes (protein, UniProt Q9SZY4 1-577)
chain: B1 chain with V210M
In the case of B4, the binding entry in assay [4] is given as “binds”.

B5: YN:NPF6.2, BiFC fusion expressed in Xenopus oocytes (protein, UniProt Q9SZY4 1-577)
chain: B1 chain
Consider B5, for which the binding entry in assay [4] is “binds”.

B6: NPF6.2 wild type, split-nanoluciferase fusion in yeast (protein, UniProt Q9SZY4 1-577)
chain: B1 chain
With B6, in assay [3], the binding result is “binds”.

B7: NPF6.3/NRT1.1 (nitrate transceptor), split-ubiquitin fusion (protein, UniProt Q05085 1-590)
chain: MSLPETKSDDILLDAWDFQGRPADRSKTGGWASAAMILCIEAVERLTTLGIGVNLVTYLTGTMHLGNATAANTVTNFLGTSFMLCLLGGFIADTFLGRYLTIAIFAAIQATGVSILTLSTIIPGLRPPRCNPTTSSHCEQASGIQLTVLYLALYLTALGTGGVKASVSGFGSDQFDETEPKERSKMTYFFNRFFFCINVGSLLAVTVLVYVQDDVGRKWGYGICAFAIVLALSVFLAGTNRYRFKKLIGSPMTQVAAVIVAAWRNRKLELPADPSYLYDVDDIIAAEGSMKGKQKLPHTEQFRSLDKAAIRDQEAGVTSNVFNKWTLSTLTDVEEVKQIVRMLPIWATCILFWTVHAQLTTLSVAQSETLDRSIGSFEIPPASMAVFYVGGLLLTTAVYDRVAIRLCKKLFNYPHGLRPLQRIGLGLFFGSMAMAVAALVELKRLRTAHAHGPTVKTLPLGFYLLIPQYLIVGIGEALIYTGQLDFFLRECPKGMKGMSTGLLLSTLALGFFFSSVLVTIVEKFTGKAHPWIADDLNKGRLYNFYWLVAVLVALNFLIFLVFSKWYVYKEKRLAEVGIELDDEPSIPMGH
For the molecule B7, the binding result in assay [1] is “binds”.

B8: NPF6.3/NRT1.1, split-nanoluciferase fusion in yeast (protein, UniProt Q05085 1-590)
chain: B7 chain
Regarding B8, the binding entry in assay [3] is “binds”.
